Reference: PubChem BioAssay AID1224830 (NIAID, 2016)
Here is one part, drawn at random, of about 18,000 reagents tested. About 2,900 of all reagents (16%) count as active. 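Calls are made per well; low scores hint the gene aids the LPS response, high scores that it dampens it.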 Repeated entries: four replicate wells of each siRNA pool.

- Test: 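Host factors that control LPS-induced TNF expression in human macrophages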 (primary screen)
- Cell system: human THP-1 monocytic leukaemia cells, TNF dual-luciferase reporter clone, PMA-differentiated to macrophage-like cells
- Knock-down reagent: siRNA pool against human genes, 50 nM
- Timing: LPS for 4 h, given about 3 days after siRNA transfection
- Treatment: bacterial LPS (TLR4 ligand), 10 ng/ml
- Measured: 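TNF firefly reporter luminescence divided by renilla, normalised to the plate median, then turned into a robust z-score for each replicate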
- Reading the numbers: TNF reporter robust z-score: higher = stronger TNF reporter response to LPS
- Active means: 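a well is active when its z-score exceeds 2.8 or falls below -1.5; control wells carry no call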

MAGEA2 | TNF reporter robust z-score = -0.69; outcome = inactive
MAGEA2 | TNF reporter robust z-score = -0.37; outcome = inactive
MAGEA2 | TNF reporter robust z-score = -1.01; outcome = inactive
MAGEA2 | TNF reporter robust z-score = -1.69; outcome = active
AREG | TNF reporter robust z-score = -0.74; outcome = inactive
AREG | TNF reporter robust z-score = -0.5; outcome = inactive
AREG | TNF reporter robust z-score = -0.61; outcome = inactive
AREG | TNF reporter robust z-score = -0.19; outcome = inactive
RFESD | TNF reporter robust z-score = 2.71; outcome = inactive
RFESD | TNF reporter robust z-score = 1.11; outcome = inactive
RFESD | TNF reporter robust z-score = 3.98; outcome = active
RFESD | TNF reporter robust z-score = 1.86; outcome = inactive
VSTM2A | TNF reporter robust z-score = 0.29; outcome = inactive
VSTM2A | TNF reporter robust z-score = 1.14; outcome = inactive
VSTM2A | TNF reporter robust z-score = 2.87; outcome = active
VSTM2A | TNF reporter robust z-score = 1.79; outcome = inactive
HP1BP3 | TNF reporter robust z-score = -0.56; outcome = inactive
HP1BP3 | TNF reporter robust z-score = 1.24; outcome = inactive
HP1BP3 | TNF reporter robust z-score = 0.07; outcome = inactive
HP1BP3 | TNF reporter robust z-score = 0.02; outcome = inactive
ILKAP | TNF reporter robust z-score = -0.24; outcome = inactive
ILKAP | TNF reporter robust z-score = 1.01; outcome = inactive
ILKAP | TNF reporter robust z-score = 2.04; outcome = inactive
ILKAP | TNF reporter robust z-score = 2.82; outcome = active
PMS2P3 | TNF reporter robust z-score = 0.47; outcome = inactive
PMS2P3 | TNF reporter robust z-score = 1; outcome = inactive
PMS2P3 | TNF reporter robust z-score = -0.28; outcome = inactive
PMS2P3 | TNF reporter robust z-score = 0.77; outcome = inactive
TAB1 | TNF reporter robust z-score = 0.45; outcome = inactive
TAB1 | TNF reporter robust z-score = 1.73; outcome = inactive
TAB1 | TNF reporter robust z-score = -1.21; outcome = inactive
TAB1 | TNF reporter robust z-score = -0.34; outcome = inactive
SORCS3 | TNF reporter robust z-score = 0.34; outcome = inactive
SORCS3 | TNF reporter robust z-score = -0.87; outcome = inactive
SORCS3 | TNF reporter robust z-score = 0.8; outcome = inactive
SORCS3 | TNF reporter robust z-score = -0.66; outcome = inactive
TLE3 | TNF reporter robust z-score = -1.32; outcome = inactive
TLE3 | TNF reporter robust z-score = -0.45; outcome = inactive
TLE3 | TNF reporter robust z-score = 10.6; outcome = active
TLE3 | TNF reporter robust z-score = 0.06; outcome = inactive
FBXL3 | TNF reporter robust z-score = 0.51; outcome = inactive
FBXL3 | TNF reporter robust z-score = -0.2; outcome = inactive
FBXL3 | TNF reporter robust z-score = 0.17; outcome = inactive
FBXL3 | TNF reporter robust z-score = -0.93; outcome = inactive
WIPF1 | TNF reporter robust z-score = 0.61; outcome = inactive
WIPF1 | TNF reporter robust z-score = 0.17; outcome = inactive
WIPF1 | TNF reporter robust z-score = -1.36; outcome = inactive
WIPF1 | TNF reporter robust z-score = 0.64; outcome = inactive

4 entries already listed, sorted by “TNF reporter robust z-score”, low to high:
WIPF1 | TNF reporter robust z-score = -1.36; outcome = inactive
FBXL3 | TNF reporter robust z-score = -0.93; outcome = inactive
WIPF1 | TNF reporter robust z-score = 0.17; outcome = inactive
WIPF1 | TNF reporter robust z-score = 0.61; outcome = inactive
